From US8481459B2, “Chemical inhibitors of ethylene biosynthesis” (Academia Sinica, priority 2010, dated 2013)
Some entries share one result that the patent states for a list of compounds.

System: etiolated eto1-4 seedlings
Experiment: Triple response phenotype / hypocotyl length of etiolated eto1-4 seedlings
Format: in vivo, Arabidopsis thaliana
Settings: eto1-4, 3 days in the dark, dose series
Method: All mutants and transgenic plants were derived from the wild-type Arabidopsis thaliana Columbia ecotype (Col-0) and cultivated under a long-day condition (16-h light/8-h dark at 22° C.) under exemplary e light (100-150 μE m^−2 s^−1). A reporter construct, 5×EBS::LUC (a generous gift from Drs. Hai Li and Anna N. Stepanova, Salk Institute, USA), containing 5 copies of EIN3 binding sequence (EBS) fused with luciferase gene (LUC) was transformed to eto1-4 and subsequently used for screening compounds of a chemical library. Ethylene mutants eto1-4, eto2-1, ctr1-1 and the EIN3 overexpression line (35S::EIN3) were described previously (Solano, et al. (1998) Genes Dev 12, 3703-3714). Seeds were sterilized with 30% bleach for 6 min and sown in half-strength Murashige and Skoog (0.5×MS) medium supplemented with 0.8% agar and stratified in the dark at 4° C. for 3-4 days before germination. For analysis of the triple response phenotype, stratified seeds were grown in the dark at 22° C. for 3 days before scoring the phenotype.
A DIVERSet library (ChemBridge Inc.) containing 10,000 small molecules (in DMSO) was used for chemical screening. […] The seedling phenotype was scored by use of a digital camera attached to a Zeiss stereomicroscope (SteREO V8), and quantitation of hypocotyl length was performed by use of NIH Image J software. […]

For `CC1(C)CC(=O)c2cnc(NC3CCCC3)nc2C1` [Compound 9393], the “concentration at which hypocotyl elongation becomes visible” value was “higher than 1 μM”.
